Test results from PMC10653843.
These are yes or no findings as the source states them, for the method shown. Binding seen in cells or lysates may run through a third protein. A result given as binding can be weak or reduced; the word gives no strength.

Target: Myc-Vpu A14L (HIV-1)
Assay: co-IP; two batches of HEK293T cells transfected separately (FLAG-tagged hPSGL-1 WT or T379A; Myc-Vpu or Myc-Vpu A14L), lysates mixed, Vpu precipitated with anti-Myc magnetic beads overnight at 4°C; Western blot

B1: human PSGL-1 (protein, UniProt Q14242 42-412)
chain: QATEYEYLDYDFLPETEPPEMLRNSTDTTPLTGPGTPESTTVEPAARRSTGLDAGGAVTELTTELANMGNLSTDSAAMEIQTTQPAATEAQTTQPVPTEAQTTPLAATEAQTTRLTATEAQTTPLAATEAQTTPPAATEAQTTQPTGLEAQTTAPAAMEAQTTAPAAMEAQTTPPAAMEAQTTQTTAMEAQTTAPEATEAQTTQPTATEAQTTPLAAMEALSTEPSATEALSMEPTTKRGLFIPFSVSSVTHKGIPMAASNLSVNYPVGAPDHISVKQCLLAILILALVATIFFVCTVVLAVRLSRKGHMYPVRNYSPTEMVCISSLLPDGGEGPSATANGGLSKAKSPGLTPEPREDREGDDLTLHSFLP
binding: binds
